Values from PubChem BioAssay AID1259308 (NCATS, 2017).
The deposit covers about 59,000 reagents; shown is a part drawn at random. Over the whole deposit, about 1,510 (2.6%) are marked active. 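Calls use total luciferase alone and ignore viability, so some active siRNAs may act by altering cell number.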 A number with no mark means an inactive call. The numbers tell different reagents against one gene apart. Not all columns of the deposit are shown.

- Test: 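Knock-downs that increase output of a recombinant reporter protein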 (primary screen)
- System: human HEK293 embryonic kidney cells stably expressing firefly luciferase (HEK-CMV-Luc2-Hygro)
- Reagents: single siRNA against human genes, 0.8 pmol siRNA per well
- Time to read-out: 72 h
- Read-out: 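Reporter luminescence and viable-cell signal on separate replicate plates, given as percent of non-targeting control and median/MAD z-scores, plus per-cell luciferase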
- Direction: total luciferase, z-score and total luciferase, % of control: higher = more reporter protein produced
- Hit rule: 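An siRNA counts as active if its total luciferase robust z-score exceeds 3; genes with two or more such siRNAs out of three were retested with fresh siRNAs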
- Meaning of the calls: active = raised luciferase; inactive = no rise

For LIAT1 (GeneID 400566) #1, the entry reads total luciferase, z-score -1.12; total luciferase, % of control 59.7.
Silencing of LIAT1 (GeneID 400566) #2 resulted in: total luciferase, z-score 0.66; total luciferase, % of control 95.
LIAT1 (GeneID 400566) #3 gave total luciferase, z-score 0.562; total luciferase, % of control 93.1.
ANKS3 (GeneID 124401) #1 scored total luciferase, z-score -1.63; total luciferase, % of control 49.4.
Knock-down of ANKS3 (GeneID 124401) #2 resulted in: total luciferase, z-score -1.82; total luciferase, % of control 45.7.
After knock-down of ANKS3 (GeneID 124401) #3, the record shows total luciferase, z-score -0.782; total luciferase, % of control 66.3.
After knock-down of CD36 (GeneID 948) #1 the results were total luciferase, z-score -0.295; total luciferase, % of control 76.
CD36 (GeneID 948) #2 showed total luciferase, z-score -0.866; total luciferase, % of control 64.7.
Against CD36 (GeneID 948) #3 the deposit lists total luciferase, z-score -2.1; total luciferase, % of control 40.1.
For RPS17P10 (GeneID 100271071) #1, the values are total luciferase, z-score -0.592; total luciferase, % of control 70.1.
For RPS17P10 (GeneID 100271071) #2, the values are total luciferase, z-score 3.19 (active); total luciferase, % of control 145.
With knock-down of RPS17P10 (GeneID 100271071) #3 the results were total luciferase, z-score -0.842; total luciferase, % of control 65.1.
For PPP2R5A (GeneID 5525) #1, the entry reads total luciferase, z-score 2.64; total luciferase, % of control 134.
Depletion of PPP2R5A (GeneID 5525) #2 resulted in: total luciferase, z-score -0.86; total luciferase, % of control 64.8.
Against PPP2R5A (GeneID 5525) #3, the entry reads total luciferase, z-score 1.47; total luciferase, % of control 111.
For SERINC2 (GeneID 347735) #1 the deposit lists total luciferase, z-score 1.95; total luciferase, % of control 121.
SERINC2 (GeneID 347735) #2 scored total luciferase, z-score -1.22; total luciferase, % of control 57.7.
SERINC2 (GeneID 347735) #3 gave total luciferase, z-score -1.04; total luciferase, % of control 61.2.
For MAP9 (GeneID 79884) #1, the entry reads total luciferase, z-score 1.02; total luciferase, % of control 102.
Knock-down of MAP9 (GeneID 79884) #2 came out at: total luciferase, z-score 0.842; total luciferase, % of control 98.6.
With knock-down of MAP9 (GeneID 79884) #3, the record shows total luciferase, z-score 0.0748; total luciferase, % of control 83.4.
For NUP160 (GeneID 23279) #1, the entry reads total luciferase, z-score -0.526; total luciferase, % of control 71.4.
NUP160 (GeneID 23279) #2 showed total luciferase, z-score 0.188; total luciferase, % of control 85.6.
NUP160 (GeneID 23279) #3 showed total luciferase, z-score -1; total luciferase, % of control 62.
Depletion of RPSAP12 (GeneID 387867) #1 resulted in: total luciferase, z-score -3.04; total luciferase, % of control 21.4.
After knock-down of RPSAP12 (GeneID 387867) #2, the screen gave total luciferase, z-score -2.45; total luciferase, % of control 33.2.
Against RPSAP12 (GeneID 387867) #3, the values are total luciferase, z-score 0.842; total luciferase, % of control 98.6.
Silencing of APOC3 (GeneID 345) #1 resulted in: total luciferase, z-score -0.154; total luciferase, % of control 78.8.
Depletion of APOC3 (GeneID 345) #2 resulted in: total luciferase, z-score -0.0691; total luciferase, % of control 80.5.
Silencing of APOC3 (GeneID 345) #3 came out at: total luciferase, z-score 0.162; total luciferase, % of control 85.1.
For PPP1R15A (GeneID 23645) #1 the deposit lists total luciferase, z-score 0.314; total luciferase, % of control 88.1.
For PPP1R15A (GeneID 23645) #2, the entry reads total luciferase, z-score -0.159; total luciferase, % of control 78.7.
For PPP1R15A (GeneID 23645) #3, the values are total luciferase, z-score -0.0549; total luciferase, % of control 80.8.
